# Library screen at single concentrations

A: 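Phenotypic screen: M. tuberculosis growth, cholesterol and DPPC medium, 4 days; the read-out is not stated. Tested at 50 µM. Higher reads as more growth inhibition (inferred: compounds with an IC50 in retests scored well above the rest). Size under these conditions: about 69,000 compounds, about 370 of them at 50% or above in at least one test.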
B: 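Phenotypic screen: M. tuberculosis growth, glucose 7H9 medium, 3 days; the read-out is not stated. Compounds at 50 µM. The record gives no direction; compounds that gave an IC50 in retests scored well above the rest, so higher reads as more growth inhibition. Of about 69,000 compounds tested this way, about 760 (1.1%) reached 50% or more in at least one test.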

Results are given as percent effect. How 0% and 100% were set is not recorded. Most values in the screen are low, and negative values occur. This is an unselected part of the compounds tested. Two or more numbers in one place are separate tests of the same structure; such repeats can differ widely.

| compound | A | B |
|---|---|---|
| `CN(C)CCN(Cc1ccc(C(F)(F)F)cc1)C(=O)c1cc[nH]n1` | 13.52% | 11.47% and 7.423% |
| `COCCc1noc(-c2ccc(-c3cc[nH]n3)nc2)n1` | -1.462% | 33.43% |
| `[H][C@@]12COCC[C@]1([H])C[C@H](N(CC(=O)NC)C(=O)c1ccccc1)C2` | -11.13% | -11.16% |
| `CN(Cc1nnc(C2CC2)o1)Cc1ccccc1N1CCOCC1` | 11.12% | 45.83% and 31.81% |
| `[H][C@@]12CCN(C[C@@H]1CN1CCOCC1)[C@@H](CNC(=O)Nc1ccsc1)C2` | 13.55% | 3.071% and 2.357% |
| `O=C(NCC[S+]([O-])c1ccccc1)c1ccc2[nH]c(=O)[nH]c2c1` (stereo not given) | -2.78% | 1.178% |
| `Cc1nc[nH]c1CN1CCCn2nc(CN3CCC(F)(F)CC3)cc2C1` | -3.588% | -13.73% |
| `O=C(O)C(F)(F)F.O=C(O)C(F)(F)F.O=C(O)C(F)(F)F.[H][C@]12C[C@@H](CN3CCCC3)N(c3nccs3)[C@@]1([H])CCN(C)C2` | 13.92% | -9.492% |
| `[H][C@]12CCCC[C@]1([H])N(C(=O)C1CCOCC1)CC[C@@]2(O)c1ccccc1` | -28.21% | -23.49% |
| `CN1CCN(C(=O)c2cncc(CC3CCCN(C)C3)c2)CC1` (stereo not given) | -41.31% | -49.9% |
| `COc1cc(C2(C(=O)N3CCN(CC(C)(C)O)CC3)CC2)ccc1C` | -2.518% | -4.91% |
| `CC(C)(C)CN1CCCC12Cc1ccccc1CNC2=O` (stereo not given) | -8.467% | -1.627% |
| `COc1cccn(CC(=O)N(C)CCOc2cc(C)cc(C)c2)c1=O` | -9.516% | -29.13% |
| `Cc1noc(C)c1CNc1cccc(C(=O)N2CCCC(O)C2)c1` (stereo not given) | 4.915% | 12.47% |
| `CCCNC(=O)C1CCN(CC(O)c2ccc(C(F)(F)F)cc2)CC1` (stereo not given) | 1.67% | 26.98% |
| `COCCc1ncc(CNC2(c3ccc(Cl)cc3)CC2)cn1` | -11.91% | -9.351% |
| `O=C(C(C1CC1)C1CC1)N1CCC(n2ccnn2)CC1` | -10.69% | 11.67% |
| `CNS(=O)(=O)c1cc(C(=O)N(C)Cc2sccc2C)c(C)o1` | 1.318% | 1.265% |
| `COCCn1cncc1Cn1cccc(C(F)(F)F)c1=O` | -11.09% | 10.65% |
| `O=C(Cn1ccc(=O)[nH]c1=O)NCC1Cc2ccccc2O1` (stereo not given) | -9.914% | -8.088% |
| `O=C(NCc1cccs1)C1CCCN(c2cc(-n3cncn3)ncn2)C1` (stereo not given) | 11.56% | 20.7% and 8.082% |
| `N#Cc1cccc(CNCCC(=O)N2CCc3sccc3C2)c1` | 4.462% | -3.652% and 3.395% |
| `CCSc1ncc(-c2cc(C3CC3)nc(N)c2C#N)cn1` | -6.469% and 7.785% | 13.42% |
| `Cc1ccc(C(=O)N2CCc3ncnc(C)c3CC2)cc1F` | -25.34% | -6.416% and -21.37% |
| `COCC(=O)N1CCC2(CCC2NS(=O)(=O)c2ccccc2)CC1` (stereo not given) | -16.71% | -7.373% and -36.6% |
| `CN(C)C(=O)c1noc2c1CN(C(=O)CCCN1CCCCC1)CC2` | -2.713% and -26.43% | -46.42% |
| `CN(C)CC1(O)CCN(Cc2cnc3c(-c4ccccc4)cnn3c2)C1` (stereo not given) | 6.34% | 19.21% and -0.9097% |
| `Cc1ncsc1C(=O)NC1CCN(CCC#N)CC1` | -33.77% | -26.88% |
| `COc1cc(NC(=O)c2nc3ccccc3n(C)c2=O)cc(OC)c1` | -10.18% | -1.563% |
| `CCc1nc(CC(=O)NC(C#N)CC(C)C)cs1` (stereo not given) | 15.39% | 18.52% and -3.365% |
| `COc1ccc(OC)c(CNc2nnc(C(C)(C)C)o2)c1` | 9.662% | 6.882% |
| `CCC1=NC(SCC(=O)c2ccc(OC)cc2)c2cc(CC)sc2N1` (stereo not given) | -20.18% | -32.27% |
| `Cc1nn(C)cc1C(C)Nc1ncnc2sccc12` (stereo not given) | 0.2808% | -32.65% |
| `CN(Cc1cscn1)C(=O)C(c1ccccc1)N1CCSCC1` (stereo not given) | -7.195% and -22.58% | -26.35% |
| `Cc1cn(-c2ccccc2)nc1NS(=O)(=O)c1cccc(C(=O)O)c1` | -12.79% | -4.117% and -13.86% |
| `CN(Cc1noc(C(C)(C)C)n1)Cc1ccccc1N1CCCC1` | 1.166% | -20.15% |
| `Cc1cnn(CC2CCCN2CCc2nc3ccccc3c(=O)[nH]2)c1` (stereo not given) | 0.02079% | 21.21% |
| `O=S(=O)(CCO)Cc1ccc(OCC(F)(F)F)cc1` | 7.354% | 15.59% |
| `O=C1NCCCc2[nH]c(-c3nc(C4CCCCC4)no3)nc21` | 8.482% | 5.334% |
| `COCCN1CC2(CCCN(C(=O)NCc3ccccc3)C2)CCC1=O` (stereo not given) | 10.87% | -10.16% |
| `CCc1cccc(C)c1NC(=O)NCCCN(CC)S(C)(=O)=O` | -8.949% | -10.56% |
| `CCCc1cc(CNC2CCN(c3cc(C)nc(N)n3)CC2)on1` | 5.606% | 17.91% |
| `Cc1ccccc1CNCC(O)c1ccc(OC(C)C)cc1` (stereo not given) | 3.866% | -15.12% |
| `CN(c1ccc(C(N)=O)nn1)C1CCC1` | -14.06% | 36.66% |
| `COCCNC(=O)c1ccccc1-n1cc(CN)cn1` | -14.46% | -22.04% |
| `CNc1cc(C(=O)N2CCCCC2CCn2ccnc2C)ccn1` (stereo not given) | -9.971% and 0.2254% | -7.064% |
| `COCc1nc(C(=O)N2CCCCC2Cn2cc(C)cn2)cs1` (stereo not given) | -18.24% | 21.26% |
| `CC(=O)NCCn1ccnc1-c1cccc(C(C)N(C)C)c1` (stereo not given) | -22.29% | -25.08% |
| `CCOCCn1c(=O)[nH]c2cc(C(=O)N(C)Cc3nc(C)cs3)ccc21` | -4.058% | -10.33% |
| `COCCNC(=O)c1cc(C(C)C)nc(N2CCCC2)n1` | 4.448% | -4.606% |
| `O=C(O)C(F)(F)F.[H][C@@]12CN(CCOC)C[C@]1([H])[C@@H](OC)CCN2C(=O)Cc1ccccc1` | -18.78% | 6.082% |
| `CCn1cc(CN2CCC(O)(Cn3ccc4ncccc43)CC2)cn1` | -2.748% | 10.38% |
| `Cc1cc(NC(=O)CN2CCCC2c2noc(C(C)C)n2)on1` (stereo not given) | -12.37% | -21.37% |
| `CS(=O)(=O)NCCNc1ncnc2cccc(F)c12` | 8.968% | 14.65% and 1.205% |
| `CCc1nnsc1C(=O)N1CCCN(Cc2ccccc2)CC1` | 7.735% | -3.712% |
| `CN1CC(=O)N(c2cnn(C)c2)CC12CCN(CC1CC1)C2.O=C(O)C(F)(F)F.O=C(O)C(F)(F)F` (stereo not given) | 10.56% | 1.419% |
| `Cc1cc(-c2ccncc2)ccc1OCC(N)=O` | 13.33% | 1.392% |
| `Clc1cc(CN2CCCN3CCCC3C2)c2ncccc2c1` (stereo not given) | 48.61% | 72.17% |
| `c1ccc(N2CCC(OCC3CCCCO3)CC2)nc1` (stereo not given) | 10.97% | 12.45% |
| `COc1ccc2[nH]c(=O)c(CN(C)C(C)c3ccccn3)cc2c1` (stereo not given) | -21.59% | -17.99% |
| `COc1c(C2CCCN2CC(=O)N(C)c2nccs2)c(C)nn1C` (stereo not given) | -9.306% | -16.81% |
| `CN(C)C(=O)c1cccnc1-c1ccc2c(c1)OCO2` | 0.8446% and -6.367% | -8.216% |
| `OCC1CCCN(Cc2c(C3CCCC3)[nH]c3ncccc23)C1` (stereo not given) | -26.11% | 3.302% |
| `COc1c(NS(=O)(=O)c2ccc(F)c(C)c2)c(C)nn1C` | 8.007% | 21.25% |
| `[H][C@]12CCC[C@@]1(CO)CN(C(=O)c1cc(C)nc3cc(F)ccc13)C2` | -2.899% | 6.101% |
| `CC(C)(C)CC(=O)N1CSCC1C(=O)NCc1cccc(C#N)c1` (stereo not given) | -14.87% | -7.151% and -15.71% |
| `[H][C@]12CCC(=O)N[C@@]1(C)CCCCN2Cc1ccc(F)c(OC)c1` | 7.955% and 5.449% | -2.016% |
| `O=C1NC2(Cc3ccccc31)CN(CC1CCCC1)C2` | 3.161% | -2.27% |
| `Fc1ccc(CN2CCCn3nnc(COCC4CC4)c3C2)cc1.O=C(O)C(F)(F)F` | -8.997% and -45.09% | -7.567% |
| `COCC(=O)Nc1cnn(COc2ccc(F)cc2Cl)c1` | 16.02% | 18.24% |
| `CN(Cc1ccsc1)c1nc(-c2ccccn2)nc2c1CCNCC2` | -0.8669% | 30.13% and 23.42% |
| `O=C(Nc1cc(CSCCO)ccn1)c1cc2ccccc2[nH]1` | 9.851% | 28.13% |

Some entries from above, unchanged:

CCSc1ncc(-c2cc(C3CC3)nc(N)c2C#N)cn1 read A: -6.469% and 7.785%; B: 13.42%.
[H][C@@]12CCN(C[C@@H]1CN1CCOCC1)[C@@H](CNC(=O)Nc1ccsc1)C2 read A: 13.55%; B: 3.071% and 2.357%.
COc1ccc2[nH]c(=O)c(CN(C)C(C)c3ccccn3)cc2c1 (stereo not given) read A: -21.59%; B: -17.99%.
COCCc1ncc(CNC2(c3ccc(Cl)cc3)CC2)cn1 read A: -11.91%; B: -9.351%.
CCCc1cc(CNC2CCN(c3cc(C)nc(N)n3)CC2)on1 read A: 5.606%; B: 17.91%.
N#Cc1cccc(CNCCC(=O)N2CCc3sccc3C2)c1 read A: 4.462%; B: -3.652% and 3.395%.

From ChEMBL document CHEMBL3988442, “University of Dundee, Small-Polar-MMV Screening Library” (2021).